Reference: patent publication US8034787B2, “Enzyme-cleavable prodrug compounds” (Medarex, Inc., priority 1998, dated 2011)
Where two headings read alike, the source gives them in different places. At least one peptide structure holds a part that was inferred or is arguable (an end, a ring closure or a residue). Marks after values point to notes of the source that are not given here.

Columns and labels:
MX-1 tumors = assay type: in vivo, mice; conditions: 5 doses, one every 7 days; for TGI: over control at Day 18
Experimental: MX-1 tumors which are moderately doxorubicin-sensitive, human breast carcinoma xenografts, were implanted subcutaneously (s.c.) and mice were weighed and tumors were measured (by caliper) at least once a week prior to start of dosing (Day 0), then twice a week during the study. Immediately before the start of dosing (Study Day −2 to Day 0), mice were randomized to various groups based on the weight of the tumors. Mice were euthanized after the tumors reached a cutoff weight of 1.5 g (cancer endpoint). Studies were terminated at Day 60.

HL-60 cells = assay: 3H-thymidine incorporation proliferation assay; assay type: cell-based; conditions: 24 hours
Experimental: Promyelocytic leukemia cells, HL-60, were cultured in RPMI media containing 10% heat inactivated fetal calf serum (FCS). On the day of the study, the cells were collected, washed and resuspended at a concentration of 0.5×10^6 cells/ml in RPMI containing 10% FCS. 100 μl/well of cell suspension was added to 96 well plates. […] Finally, 10 μl of a 100 μCi/ml ^3H-thymidine was added per well and the plates were incubated for 24 hours. The plates were harvested using a 96 well Harvester (Packard Instruments) and counted on a Packard Top Count counter. Four parameter logistic curves were fitted to the ^3H-thymidine incorporation as a function of drug molarity using Prism software to determine IC50 values.

LS174T tumors = assay: LS174T xenograft, five weekly intravenous doses (Example 17)
LS174T tumor = conditions: 5 doses, one every 7 days
Excerpt: Statistically significant from vehicle control group: *: p<0.05; **: p<0.01 (unpaired t-test).

COc1cccc2c1C(=O)c1c(O)c3c(c(O)c1C2=O)C[C@@](O)(C(=O)CO)C[C@@H]3O[C@H]1C[C@H](NC(=O)[C@H](CC(C)C)NC(=O)[C@H](C)NC(=O)[C@H](CC(C)C)NC(=O)CCNC(=O)CCC(=O)O)[C@H](O)[C@H](C)O1 [Suc-βAla-Leu-Ala-Leu-Dox, succinyl-β-Ala-Leu-Ala-Leu-Dox]
MDS (MX-1 tumors; 17 mg/kg): 20.0 ± 0.7 days
TGD (MX-1 tumors; 17 mg/kg): 0.0 days
Tumor Weight (mg, Day 18) (MX-1 tumors; 17 mg/kg): 1219 ± 90 mg
TGI (MX-1 tumors; 17 mg/kg): 0%
MDS (MX-1 tumors; 35 mg/kg): 23.6 ± 1.0 days
TGD (MX-1 tumors; 35 mg/kg): 3.1 ± 1.3 days
Tumor Weight (mg, Day 18) (MX-1 tumors; 35 mg/kg): 911 ± 84 mg
TGI (MX-1 tumors; 35 mg/kg): 21 ± 12%
MDS (MX-1 tumors; 71 mg/kg): 37.1 ± 3.5 days
Survival: MDS Extension over controls (MX-1 tumors; 71 mg/kg): 81 ± 18%**$
TGD (MX-1 tumors; 71 mg/kg): 16.6 ± 3.5 days
Tumor Weight (mg, Day 18) (MX-1 tumors; 71 mg/kg): 702 ± 69 mg
TGI (MX-1 tumors; 71 mg/kg): 39 ± 11%
IC50 (HL-60 cells): > 50 µM
extension in the Mean Day of Survival (MDS) compared with vehicle-treated controls (LS174T tumors; 57, 64 and 71 mg/kg, five weekly intravenous doses): significant, dose-dependent, replicable extension
inhibiting the growth of human tumors (LS174T tumors; LS-174T nude mouse xenograft): efficacious
MDS (LS174T tumor; 49 mg/kg): 27.1 ± 2.3 days
MDS Extension over controls (LS174T tumor; 49 mg/kg): 8 ± 12%
Mean Tumor Weight (mg, Day 19) (LS174T tumor; 49 mg/kg): 838 ± 120 mg
TGD (LS174T tumor; 49 mg/kg): 2.1 ± 3.0 days
TGI (LS174T tumor; 49 mg/kg): 0%
MDS (day) (LS174T tumor; 57 mg/kg): 32.7 ± 3.5* day
MDS Extension over controls (LS174T tumor; 57 mg/kg): 31 ± 16%*
Mean Tumor Weight (mg, Day 19) (LS174T tumor; 57 mg/kg): 646 ± 122 mg
TGD (LS174T tumor; 57 mg/kg): 7.7 ± 4.0 days
TGI (LS174T tumor; 57 mg/kg): 17 ± 30%*
MDS (day) (LS174T tumor; 64 mg/kg): 33.3 ± 2.9* day
MDS Extension over controls (LS174T tumor; 64 mg/kg): 33 ± 14%**$
Mean Tumor Weight (mg, Day 19) (LS174T tumor; 64 mg/kg): 684 ± 127 mg
TGD (LS174T tumor; 64 mg/kg): 8.3 ± 3.5 days
TGI (LS174T tumor; 64 mg/kg): 12 ± 30%
